Laboratory results taken from paper PMC6597238, “The GluTR-binding protein is the heme-binding factor for feedback control of glutamyl-tRNA reductase” (eLife, 2019).
No constants are given. Whether binding was seen depends on the method and setting. Some binding calls cover weakened binding; strength is not graded here. Sequences can lack the tags named with a protein.

Tests used:
[1] = target: T1, GST-GBP (GluTR-binding protein) (Arabidopsis) (UniProt Q9LU39); assay: pull-down; 10 µg GST-GBP on GSH-Sepharose, 10 µg HIS-GluTR1 added, 30 min RT, PBSplus (PBS, 10% glycerol, 0.2% Tween 20), washes with 500 mM NaCl; no hemin; 6xHIS-GluTR1 detected with a HIS-tag antibody; both purified
T1 sequence: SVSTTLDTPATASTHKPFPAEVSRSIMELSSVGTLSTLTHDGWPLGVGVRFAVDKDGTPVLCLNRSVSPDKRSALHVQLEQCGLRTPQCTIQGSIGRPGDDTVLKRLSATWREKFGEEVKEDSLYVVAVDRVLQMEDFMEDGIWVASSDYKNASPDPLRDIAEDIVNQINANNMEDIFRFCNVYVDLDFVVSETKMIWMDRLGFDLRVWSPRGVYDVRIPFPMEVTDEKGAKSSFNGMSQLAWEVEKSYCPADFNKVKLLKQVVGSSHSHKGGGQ

[2] = target: T1, GST-GBP (GluTR-binding protein) (Arabidopsis); assay: pull-down; as a1 but in the presence of 500 µM hemin (GST-GBP pre-incubated with hemin 30 min before HIS-GluTR1 was added); both purified

- binding [1]: binds
B1: 6xHIS-GluTR1 (glutamyl-tRNA reductase 1) (enzyme, UniProt P42804 62-543)
chain: ELSASSDSASNAASISALEQLKNSAADRYTKERSSIVVIGLSIHTAPVEMREKLAIPEAEWPRAIAELCGLNHIEEAAVLSTCNRMEIYVLALSQHRGVKEVTEWMSKTSGIPVSEICQHRFLLYNKDATQHIFEVSAGLDSLVLGEGQILAQVKQVVKVGQGVNGFGRNISGLFKHAITVGKRVRTETNIASGAVSVSSAAVELALMKLPQSSNVSARMCVIGAGKMGKLVIKHLMAKGCTKVVVVNRSEERVSAIREEMPGIEIIYRPLDEMLACASEADVVFTSTASETPLFLKEHVENLPQASPEVGGLRHFVDISVPRNVGSCVGEVETARVYNVDDLKEVVAANKEDRMRKAMEAQTIITEESTQFEAWRDSLETVPTIKKLRAYAERIRVAELEKCMSKMGDDINKKTTRAVDDLSRGIVNRFLHGPMQHLRCDGSDSRTLSETLENMHALNRMYGLEKDILEEKLKAMAEQQQK
- binding [2]: no binding (condition: with 500 µM hemin)
